Test results from PubChem BioAssay AID540275 (National Center for Advancing Translational Sciences (NCATS), 2011).
In all, about 320,000 compounds went through this assay and about 620 (0.19%) were called active. Inconclusive means that the source gave no clear call. Such entries were picked first, then a sample of the others. No stated cut-off is given here; in the data, active means activation above about 80%; inconclusive means between about 30% and that limit; inactive means weaker than that.

Amino acid sequences for entries named in this document (tags omitted).
UniProt Q8NER1, whole entry, looked up: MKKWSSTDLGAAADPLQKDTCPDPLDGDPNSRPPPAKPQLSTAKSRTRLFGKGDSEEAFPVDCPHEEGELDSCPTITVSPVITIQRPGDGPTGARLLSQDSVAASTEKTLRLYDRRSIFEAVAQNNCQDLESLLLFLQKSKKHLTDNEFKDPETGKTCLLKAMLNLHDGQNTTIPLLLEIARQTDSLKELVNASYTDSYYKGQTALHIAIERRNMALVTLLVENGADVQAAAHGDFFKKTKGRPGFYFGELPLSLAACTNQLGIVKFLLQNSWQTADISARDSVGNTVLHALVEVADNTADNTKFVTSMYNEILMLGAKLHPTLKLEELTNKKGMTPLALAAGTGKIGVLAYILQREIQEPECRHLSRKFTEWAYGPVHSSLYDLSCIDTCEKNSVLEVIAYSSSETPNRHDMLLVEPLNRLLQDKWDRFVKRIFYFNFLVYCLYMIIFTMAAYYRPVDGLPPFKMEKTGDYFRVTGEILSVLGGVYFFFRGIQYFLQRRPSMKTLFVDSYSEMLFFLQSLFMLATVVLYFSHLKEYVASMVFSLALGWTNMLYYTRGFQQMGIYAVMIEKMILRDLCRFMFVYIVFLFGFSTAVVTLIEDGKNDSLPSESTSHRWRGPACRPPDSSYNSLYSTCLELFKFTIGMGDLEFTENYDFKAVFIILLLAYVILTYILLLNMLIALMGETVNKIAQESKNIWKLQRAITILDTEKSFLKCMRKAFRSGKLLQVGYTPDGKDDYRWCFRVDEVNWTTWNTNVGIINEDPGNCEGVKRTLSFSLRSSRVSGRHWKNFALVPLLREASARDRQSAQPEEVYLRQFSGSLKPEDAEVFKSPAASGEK

Target: Transient receptor potential cation channel subfamily V member 1 (Homo sapiens) (UniProt Q8NER1)
Assay: HTS Assay for Compounds that Act as Agonists of the Vanilloid Receptor 1; further: 0% is about no effect
Conditions: TRPV1-expressing cells, Fluo-8 calcium influx, agonist mode; at 8.33 µM, hits give high values
Summary of the method: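 Fluo-8 calcium influx in TRPV1-expressing cells, kinetic read (ex 480/em 520 nm). Compound added and read 3 min for agonist activity, followed by capsaicin at EC20 final and 2 min further read for enhancement.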

| SMILES | activation |
| --- | --- |
| Cc1ccccc1OCC(=O)OCC(=O)Nc1cc(S(C)(=O)=O)ccc1Cl | inactive: -1.14% |
| COc1ccc(NC(=O)CN2CCC(C)CC2)c([N+](=O)[O-])c1 | inconclusive: 30.9% |
| CCNC(=S)NNC(=O)c1cc(-c2ccc(OC)cc2)nc2ccccc12 | inactive: 18.9% |
| CCOc1cccc(C(=O)Nc2cc(C)ccc2NC(=O)c2ccco2)c1 | inconclusive: 38.8% |
| CC(=O)c1cccc(NC(=O)NCc2ccc3c(c2)OCO3)c1 | inconclusive: 54.8% |
| CCN=C1S/C(=C\c2ccc(N3CCOCC3)cc2C)C(=O)N1CC | inactive: 24.4% |
| CCOC(=O)c1ccc(NC(=S)N(CCN2CCCCCC2)Cc2ccco2)cc1 | inactive: 8.64% |
| O=C1Nc2ccccc2CCC1Sc1nnc(-c2ccc(Cl)cc2)s1 (stereo not drawn) | inactive: 14.9% |
| CCC(NC(=S)NCc1ccc(F)cc1)c1ccc(C)cc1 (stereo not drawn) | inconclusive: 54.5% |
| CC(C)c1ccc(NC(=O)N2CCC(c3nc4ccccc4o3)CC2)cc1 | active: 96.6% |
| Fc1ccc(OCCCCCN2CCCC2)cc1 | inactive: -6.69% |
| O=C(Cc1cnn(-c2ccccc2)c1)c1ccc(O)c(O)c1O | inconclusive: 59.6% |
| O=C(COC(=O)c1cc(-c2ccccc2)nc2ccccc12)NCC1CCCO1 (stereo not drawn) | inconclusive: 36.5% |
| CCC(C)NC(=O)CSc1nnc(-c2cc(OC)c(OC)c(OC)c2)c(-c2cc(OC)c(OC)c(OC)c2)n1 (stereo not drawn) | inactive: 5.17% |
| Cc1cccc2c(N)c3c(nc12)N(C)CC3 | inactive: 2.9% |
| CSc1ccccc1NC(=O)CN(C)CC(=O)Nc1ccccc1C(F)(F)F | inactive: 8.91% |
| Cc1ccc(C(=O)Nc2ccsc2C(=O)O)cc1 | inactive: -4.64% |
| COc1cc(C(=O)OCC(=O)NCc2ccc(F)cc2)cc(NC(=O)c2cccs2)c1OC | inconclusive: 64.7% |
| Cc1cc2c(n1-c1ccc(Cl)cc1)CC(C)(C)CC2=O | inconclusive: 31.6% |
| Cc1ccc(/C=N/NC(=O)c2cc(C)oc2C)cc1 | inconclusive: 59.4% |

| SMILES | activation |
| --- | --- |
| O=C(NC(=S)Nc1cccc2cnccc12)c1ccccc1 | inconclusive: 49.6% |
| O=c1oc2c3c4c(cc2c(C(F)(F)F)c1CCN1CCOCC1)CCCN4CCC3 | inactive: 17.2% |
| CCc1nnc(NC(=O)CSc2ncc(-c3ccccc3)[nH]2)s1 | inactive: -2.66% |
| CCOc1ccc2nc(SCC3CC3(Cl)Cl)[nH]c2c1 (stereo not drawn) | inconclusive: 30.3% |
| Cc1ccc2nc(N3CCN(C=O)CC3)nc(-c3ccccc3)c2c1 | inconclusive: 50.9% |
| CCOc1ccccc1NC(=O)[C@@H](NC(=O)c1cccc(S(=O)(=O)N2CCOCC2)c1)C(C)C | inconclusive: 40.7% |
| Cc1ccc(NC2CCCN(C(=O)c3cnsn3)C2)cc1C (stereo not drawn) | inconclusive: 44.6% |
| COc1ccc(CNC(=O)CCc2ccc(S(=O)(=O)N3CCCCCC3)cc2)cc1 | inconclusive: 47.1% |
| COc1ccc(/C=N/NC(=O)c2ccccc2Cl)cc1CSc1nc2ccccc2s1 | inconclusive: 51.6% |
| COCCCn1[nH]c2c3c(ccc2c1=O)C(=O)c1ccccc1C3=O | inconclusive: 35.9% |
| CC(C)=CC1C(C(=O)Nc2ccc(S(=O)(=O)N3CCOCC3)cc2)C1(C)C (stereo not drawn) | inconclusive: 66.5% |
| O=C(Nc1ccc(-c2cnco2)cc1)c1ccccc1 | inconclusive: 43.4% |
| CC(C)C(=O)NC(=S)Nc1ccccc1N1CCN(C(=O)c2ccc(Cl)cc2)CC1 | inconclusive: 57.3% |
| O=C(NC(=S)N(Cc1ccccc1)Cc1ccccc1)c1ccccc1F | inactive: 18.3% |
| O=C(NCc1ccc(F)cc1)c1cc(-c2ccncc2)nc2ccccc12 | inactive: 0.689% |
| COC(=O)COn1c(SCC(=O)OC)nc2ccccc2c1=O | inconclusive: 31.1% |
| CCN1CCN(c2ccc(NC(=O)CCc3c(C)nc4c(-c5ccc(F)cc5)c(C)nn4c3C)cc2)CC1 | inconclusive: 58% |
| O=C1NC(Nc2nccs2)(C(F)(F)F)C(=O)N1CCc1ccccc1 (stereo not drawn) | inactive: 0.749% |
| CC(NC(=O)CCc1ccccc1)c1ccc2c(c1)OCO2 (stereo not drawn) | inactive: -2.16% |
| CCc1nc(SCC(=O)OC)c2c3c(sc2n1)COC(C)(C)C3 | inconclusive: 51.1% |

3 structures already listed, ordered by molecular weight, largest number first:

| SMILES | activation |
| --- | --- |
| CC(C)=CC1C(C(=O)Nc2ccc(S(=O)(=O)N3CCOCC3)cc2)C1(C)C (stereo not drawn) | inconclusive: 66.5% |
| O=C1NC(Nc2nccs2)(C(F)(F)F)C(=O)N1CCc1ccccc1 (stereo not drawn) | inactive: 0.749% |
| CC(NC(=O)CCc1ccccc1)c1ccc2c(c1)OCO2 (stereo not drawn) | inactive: -2.16% |

Further records

| SMILES | activation |
| --- | --- |
| O=C(Nc1ccc(S(=O)(=O)N2CCCC2)cc1)c1ccccc1 | inconclusive: 59.9% |
| CC(=O)Nc1sc2c(c1C(c1ccccn1)N1CCCC1)CCCC2 (stereo not drawn) | inconclusive: 41.4% |
| CCC1CCC2(CC1)NC(=O)N(CC(=O)Nc1ccc(OC)cc1)C2=O (stereo not drawn) | inactive: 9.09% |
| O=C(CCC1CCCC1)Nc1cc(C(F)(F)F)ccc1N1CCOCC1 | inconclusive: 34.4% |
| COc1ccc(CCC(=O)N2CCN(S(=O)(=O)c3cccc(C(F)(F)F)c3)CC2)cc1OC | inconclusive: 37.2% |
| CC(C)(C)c1cccc(C2(O)C(=O)c3ccccc3C2=O)c1O | inactive: 0.519% |
| O=C(NCCc1csc(-c2ccc(C(F)(F)F)cc2)n1)c1cccs1 | inconclusive: 65.6% |
| O=C(COC(=O)/C=C/c1cccc(Cl)c1Cl)Nc1ccc2[nH]c(=O)[nH]c2c1 | inactive: 3.11% |
| O=C(NC(=S)Nc1nc2c(s1)CSc1ccccc1-2)c1ccccc1 | inactive: -0.592% |
| COCCNC(=S)N1CCN(C(c2ccccc2)c2ccccc2)CC1 | inconclusive: 60.9% |
| OC1(c2ccc(Cl)cc2)CCN(Cc2cn[nH]c2-c2ccc(F)cc2)CC1 | inactive: 0.988% |
| COc1ccccc1CNC(=O)c1c(N)n(CCCN2CCOCC2)c2nc3ccccc3nc12 | inconclusive: 61.4% |
| CCOc1ccc(C(=O)Nc2cccc(C(C)=O)c2)cc1[N+](=O)[O-] | inconclusive: 55.1% |
| O=C(CCC1COc2ccccc2O1)NC1CCCCC1 (stereo not drawn) | inconclusive: 36.8% |
| O=C(Cc1cccs1)Nc1nc(-c2ccccc2)cs1 | inconclusive: 72.2% |
| Cc1ccc(N2C(=O)C(Cl)=C(N3CCOCC3)C2=O)cc1Cl | inconclusive: 31.1% |
| Cc1ccc(-c2nn(-c3ccccc3)cc2C(=O)NC2CCC(O)CC2)cc1 (stereo not drawn) | inconclusive: 36.1% |
| C=CCN(C(=O)c1csnn1)C(C(=O)NC1CCCCC1)c1ccc(Cl)cc1 (stereo not drawn) | inconclusive: 35.1% |
